In paper PMC11700651:
Results are given in words; binding and its absence hold for the method and conditions named. In cells and extracts the contact can be indirect. A result given as binding can be weak or reduced; the word gives no strength.

Amino acid sequences for entries named in this document (tags omitted).
UniProt O00571: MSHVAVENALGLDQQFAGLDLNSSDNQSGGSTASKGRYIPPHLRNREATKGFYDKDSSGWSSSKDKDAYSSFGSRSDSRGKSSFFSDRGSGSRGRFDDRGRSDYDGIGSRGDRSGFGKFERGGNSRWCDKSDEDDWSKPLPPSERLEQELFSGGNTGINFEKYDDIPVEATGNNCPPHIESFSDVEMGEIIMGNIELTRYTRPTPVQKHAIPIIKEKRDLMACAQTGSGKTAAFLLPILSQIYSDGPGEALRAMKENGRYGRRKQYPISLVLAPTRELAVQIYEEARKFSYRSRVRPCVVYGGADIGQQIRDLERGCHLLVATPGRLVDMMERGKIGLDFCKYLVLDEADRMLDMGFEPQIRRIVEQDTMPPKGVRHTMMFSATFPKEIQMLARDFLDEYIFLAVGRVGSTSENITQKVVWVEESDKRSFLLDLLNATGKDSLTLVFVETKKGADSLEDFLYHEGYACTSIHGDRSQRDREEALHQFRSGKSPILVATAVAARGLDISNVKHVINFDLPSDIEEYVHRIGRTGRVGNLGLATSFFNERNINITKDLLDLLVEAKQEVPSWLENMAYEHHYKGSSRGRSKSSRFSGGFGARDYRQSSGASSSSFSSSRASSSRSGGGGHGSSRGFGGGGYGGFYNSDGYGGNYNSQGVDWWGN

Molecular target: Flag-DDX3X (DEAD-box helicase 3X) (human) (UniProt O00571)
Assay: co-IP; HEK293T co-transfected with the plasmids; lysed in IP buffer (50 mM Tris pH 7.5, 1% Triton X-100, 150 mM NaCl); IP with IgG, anti-Flag or anti-METTL3 at 4°C, protein-G or -A agarose; washed with IP buffer with 0.3 M NaCl; western blot

binding: binds
Substance: METTL3mut (catalytic center mutant, DPPW-APPA) (from UniProt Q86U44-1) (enzyme)
